Our source for the survivor count and T/C values is PubChem BioAssay AID248 (DTP/NCI, 2004).

This assay deals with L1210 leukemia ip in BDF1 mice, survival T/C. As to the kind of experiment: NCI In Vivo Anticancer Drug Screen. Data for tumor model L1210 Leukemia (intraperitoneal) in B6D2F1 (BDF1) mice. The conditions noted are these: T/C endpoint: mean survival time, higher T/C = longer survival.
Setting [1] is: dose: 100.0 mg/kg/injection, schedule: Q04DX003 (ip), vehicle: saline with Tween-80.
Where [2] appears, read: dose: 400.0 mg/kg/injection, schedule: Q04DX003 (ip), vehicle: saline with Tween-80.
The mark [3] stands for this setting: dose: 8.0 mg/kg/injection, schedule: Q01DX001 (ip), vehicle: saline.
Setting [4] is: dose: 200.0 mg/kg/injection, schedule: Q01DX001 (ip), vehicle: saline.
Where [5] appears, read: dose: 400.0 mg/kg/injection, schedule: Q01DX001 (ip), vehicle: saline.
[6] abbreviates: dose: 400.0 mg/kg/injection, schedule: Q01DX001 (ip), vehicle: carboxymethylcellulose (CMC).

The list is a part of this screen's results and no random one: it is rich in T/C values a quarter to a half above the control, in often repeated tests (any T/C) and in doses without a T/C. Further doses and runs are listed elsewhere. T/C is the treated group as % of the vehicle group. Some doses have a count of surviving animals in place of a T/C: the source holds a T/C of zero for them, seemingly a mark for toxic or unscored doses. Some survivor counts are full or nearly so, which does not show that the dose was tolerated: the source hardly ever lists a survival T/C far under the control, and the zero likely stands for such cases as well. Survivors were counted at the toxicity check, usually on the fifth day, unless a day is given; later deaths do not show. Schedule codes are those of the source, read here as Q, the interval in days (D) or hours (H), X, the number of doses. For survival time, this PubChem deposit counts one and a half times the control or more as active, and values a quarter to a half above the control carry no call in these data; other NCI protocols may use other cut-offs. Some T/C values are followed by the survivors on the day toxicity was checked, most often the fifth; without a count, all were alive then.

For the molecule `N#C/C(=C\c1ccco1)c1ccc([N+](=O)[O-])cc1`, the survivor count is 1 of 6 under setting [1]; 0 of 6 (dose: 200.0 mg/kg/injection, schedule: Q04DX003 (ip), vehicle: saline with Tween-80); 0 of 6 under setting [2].

Turning to `CC[C@@]1(O)C(=O)OCc2c1cc1n(c2=O)Cc2cc3cc(O)ccc3nc2-1`, the T/C is 142 % of control (dose: 0.25 mg/kg/injection, schedule: Q01DX009 (ip), vehicle: saline); 132 % of control (dose: 0.5 mg/kg/injection, schedule: Q01DX009 (ip), vehicle: saline); 131 % of control (dose: 0.51 mg/kg/injection, schedule: Q01DX015 (ip), vehicle: saline); 136 % of control (dose: 3.5 mg/kg/injection, schedule: Q01DX001 (ip), vehicle: saline); 144 % of control (dose: 4.0 mg/kg/injection, schedule: Q01DX001 (ip), vehicle: saline); 125 % of control (dose: 4.0 mg/kg/injection, schedule: Q01DX009 (ip), vehicle: saline). Further, the T/C is 130 % of control (dose: 4.6 mg/kg/injection, schedule: Q01DX009 (oral), vehicle: saline, evaluated on day 30); 125 % of control (dose: 4.6 mg/kg/injection, schedule: Q01DX009 (oral), vehicle: saline, run until all animals had died); 139 % of control [5 of 6 alive] (dose: 7.0 mg/kg/injection, schedule: Q01DX009 (oral), vehicle: saline); 144 % of control under setting [3]; 139 % of control (dose: 16.0 mg/kg/injection, schedule: Q01DX001 (ip), vehicle: saline); 138 % of control (dose: 44.0 micrograms/kg/injection, schedule: Q01DX015 (ip), vehicle: saline). Also, the T/C was 125 % of control (dose: 66.0 micrograms/kg/injection, schedule: Q01DX015 (ip), vehicle: saline) and 133 % of control (dose: 150.0 micrograms/kg/injection, schedule: Q01DX015 (ip), vehicle: saline). The survivor count is given as 5 of 6 (dose: 1.75 mg/kg/injection, schedule: Q01DX015 (ip), vehicle: saline); 6 of 6 (dose: 2.6 mg/kg/injection, schedule: Q01DX015 (ip), vehicle: saline); 6 of 6 (dose: 3.9 mg/kg/injection, schedule: Q01DX015 (ip), vehicle: saline); 5 of 6 (dose: 5.3 mg/kg/injection, schedule: Q01DX001 (ip), vehicle: saline); 2 of 6 (dose: 5.8 mg/kg/injection, schedule: Q01DX015 (ip), vehicle: saline); 4 of 6 under setting [3]. For the same molecule, the survivor count by setting is: (dose: 12.0 mg/kg/injection, schedule: Q01DX001 (ip), vehicle: saline) 1 of 6; (dose: 22.0 mg/kg/injection, schedule: Q01DX009 (oral), vehicle: saline) 5 of 6; (dose: 32.0 mg/kg/injection, schedule: Q01DX001 (ip), vehicle: saline) 1 of 4.

`O=C(NCCCl)Nc1ccncc1`: the survivor count runs as follows: (dose: 5.0 mg/kg/injection, schedule: Q01DX009 (ip), vehicle: Klucel (hydroxypropylcellulose) (HPC)) 0 of 6; (dose: 10.0 mg/kg/injection, schedule: Q04DX003 (ip), vehicle: Klucel (hydroxypropylcellulose) (HPC)) 3 of 6; (dose: 20.0 mg/kg/injection, schedule: Q04DX003 (ip), vehicle: Klucel (hydroxypropylcellulose) (HPC)) 1 of 6; (dose: 40.0 mg/kg/injection, schedule: Q04DX003 (ip), vehicle: Klucel (hydroxypropylcellulose) (HPC)) 0 of 6; (dose: 80.0 mg/kg/injection, schedule: Q04DX003 (ip), vehicle: Klucel (hydroxypropylcellulose) (HPC)) 0 of 6; (dose: 100.0 mg/kg/injection, schedule: Q04DX003 (ip), vehicle: Klucel (hydroxypropylcellulose) (HPC)) 0 of 6. Further, the survivor count by setting is: (dose: 200.0 mg/kg/injection, schedule: Q04DX003 (ip), vehicle: Klucel (hydroxypropylcellulose) (HPC)) 0 of 6; (dose: 400.0 mg/kg/injection, schedule: Q04DX003 (ip), vehicle: Klucel (hydroxypropylcellulose) (HPC)) 0 of 6.

Regarding `CCCCCCCCCCCCCCCCCCOc1cccc(C(F)(F)F)c1`, the survivor count (dose: 400.0 mg/kg/injection, schedule: Q01DX001 (ip), vehicle: saline with Tween-80) is 6 of 6.

In the case of `Clc1ccc2scc3c4ccccc4nc-3c2c1`, the survivor count reads like this: (dose: 200.0 mg/kg/injection, schedule: Q04DX003 (ip), vehicle: acetone) 3 of 6; (dose: 400.0 mg/kg/injection, schedule: Q04DX003 (ip), vehicle: acetone) 0 of 6.

Take `N#C/C=C/C=C/C#N`: the survivor count (dose: 300.0 mg/kg/injection, schedule: Q01DX001 (ip), vehicle: other) was 1 of 6.

As to `N=C(N)SCc1cccc([N+](=O)[O-])c1`, for the setting “dose: 100.0 mg/kg/injection, schedule: Q04DX002 (ip), vehicle: saline with Tween-80”, the survivor count was 3 of 3.

Regarding `CC(C)(C)NCCCN1CC1(C)C` (stereo not given), the survivor count is 0 of 6 (dose: 50.0 mg/kg/injection, schedule: Q01DX009 (ip), vehicle: saline); 0 of 6 (dose: 100.0 mg/kg/injection, schedule: Q01DX009 (ip), vehicle: saline); 0 of 6 under setting [4]; 0 of 6 under setting [5].

Turning to `NC(Cn1ccc(=O)c(O)c1)C(=O)O` (stereo not given), the survivor count is, setting by setting: (dose: 400.0 mg/kg/injection, schedule: Q01DX009 (ip), vehicle: saline) 3 of 6; (dose: 1200.0 mg/kg/injection, schedule: Q01DX009 (ip), vehicle: saline) 4 of 6; (dose: 1600.0 mg/kg/injection, schedule: Q01DX009 (ip), vehicle: saline) 2 of 6.

Turning to `O=C(O)COc1ccccc1C(=O)O`, the survivor count (dose: 80.0 mg/kg/injection, schedule: Q01DX001 (ip), vehicle: saline) was 0 of 4; the survivor count (dose: 100.0 mg/kg/injection, schedule: Q01DX001 (ip), vehicle: saline) was 1 of 4; the survivor count under setting [4] is given as 0 of 4; the survivor count under setting [5] is given as 0 of 4.

Regarding `C/C(=N\Nc1nc2ccccc2s1)c1ccc2c(c1)Sc1ccccc1O2`, the survivor count (dose: 300.0 mg/kg/injection, schedule: Q04DX003 (ip), vehicle: saline) was 6 of 6.

Consider `CCCN(CCC)CCC#N`, for which the survivor count by setting is: (dose: 267.0 mg/kg/injection, schedule: Q01DX009 (ip), vehicle: saline with Tween-80) 2 of 6; under setting [2], 1 of 6.

As for `COC(=O)C1(C)CCCC2(C)C3CCC4(C)CC3(CCC12)CC4S(=O)(=O)c1ccc(C)cc1` (stereo not given), the survivor count (dose: 100.0 mg/kg/injection, schedule: Q04DX002 (ip), vehicle: Klucel (hydroxypropylcellulose) (HPC)) is 3 of 3.

Take `Nc1ncnc2nncnc12`: the survivor count is, setting by setting: (dose: 200.0 mg/kg/injection, schedule: Q01DX001 (ip), vehicle: carboxymethylcellulose (CMC)) 0 of 4; under setting [6], 0 of 4.

Regarding `O=[N+]([O-])c1c[nH]c2[nH]cnc(=S)c12`, under setting [6], the survivor count is 2 of 4.

For `C[Si](C)(C)C(c1ccccc1)(c1ccccc1)c1ccccc1`, the survivor count under setting [1] is listed as 6 of 6 and the survivor count (dose: 160.0 mg/kg/injection, schedule: Q04DX002 (ip), vehicle: saline with Tween-80) is listed as 3 of 3.

Take `Nc1cc(Cl)cc2c1-c1c(Cl)cc(Cl)cc1C2`: the survivor count (dose: 200.0 mg/kg/injection, schedule: Q01DX009 (ip), vehicle: Klucel (hydroxypropylcellulose) (HPC)) is on record as 1 of 6.
